PubChem BioAssay AID1259405 | NCATS – 2018

Test: 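Mouse-designed siRNAs used to find CHO productivity engineering targets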 (primary screen)
Cells: Chinese hamster CHO-K1 ovary cells with stable secreted eGFP expression
Knock-down reagent: single siRNA against mouse genes, 0.8 pmol siRNA per well (2 µl of 400 nM stock)
Duration: 3 days
Measurement: 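Per-well intracellular GFP measured by laser scanning cytometry, plus viability from ATP luminescence, each relative to plate median of non-targeting control wells, in %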
Scale: GFP, % of control: higher = more GFP per well, higher productivity; viability (ATP), % of control: higher = more viable cells (more ATP)
Active means: 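Called active when intracellular GFP, relative to negative control, is at or above 120%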
Here is one part, drawn at random, of about 50,000 reagents. About 4,000 of them (8%) were called active. 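Mouse siRNA library applied to hamster cells; one well for each siRNA.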 Entries without a mark were called inactive.

Ndufaf7 [SID363543749]: GFP, % of control = 56.4; viability (ATP), % of control = 66.9
Ndufaf7 [SID363551485]: GFP, % of control = 60.8; viability (ATP), % of control = 70.6
Ndufaf7 [SID363559090]: GFP, % of control = 83.6; viability (ATP), % of control = 79.4
Dnajb7 [SID363541733]: GFP, % of control = 86.3; viability (ATP), % of control = 61.7
Dnajb7 [SID363553325]: GFP, % of control = 145 (active); viability (ATP), % of control = 98.7
Dnajb7 [SID363566649]: GFP, % of control = 58.4; viability (ATP), % of control = 67
Mrps35 [SID363562275]: GFP, % of control = 83; viability (ATP), % of control = 82.1
Mrps35 [SID363567413]: GFP, % of control = 60.9; viability (ATP), % of control = 58.1
Mrps35 [SID363584770]: GFP, % of control = 98.1; viability (ATP), % of control = 63.4
Nkd2 [SID363562067]: GFP, % of control = 69.1; viability (ATP), % of control = 66.1
Nkd2 [SID363567205]: GFP, % of control = 15.5; viability (ATP), % of control = 27.5
Nkd2 [SID363584562]: GFP, % of control = 107; viability (ATP), % of control = 86.2
Tex16 [SID363546118]: GFP, % of control = 48; viability (ATP), % of control = 35.9
Tex16 [SID363549631]: GFP, % of control = 65.9; viability (ATP), % of control = 75.3
Tex16 [SID363563437]: GFP, % of control = 92.2; viability (ATP), % of control = 77.9
Ccr8 [SID363571204]: GFP, % of control = 69.9; viability (ATP), % of control = 54.8
Ccr8 [SID363571556]: GFP, % of control = 94.4; viability (ATP), % of control = 72.3
Ccr8 [SID363571908]: GFP, % of control = 165 (active); viability (ATP), % of control = 74.5
Fam180a [SID363547171]: GFP, % of control = 59.9; viability (ATP), % of control = 83.4
Fam180a [SID363549983]: GFP, % of control = 46; viability (ATP), % of control = 79.6
Fam180a [SID363588037]: GFP, % of control = 130 (active); viability (ATP), % of control = 189
Tpm1 [SID363541300]: GFP, % of control = 29; viability (ATP), % of control = 53.5
Tpm1 [SID363555927]: GFP, % of control = 55.1; viability (ATP), % of control = 71.1
Tpm1 [SID363566216]: GFP, % of control = 92; viability (ATP), % of control = 30.3
Mettl25 [SID363547152]: GFP, % of control = 50.3; viability (ATP), % of control = 75
Mettl25 [SID363549964]: GFP, % of control = 73.6; viability (ATP), % of control = 102
Mettl25 [SID363588018]: GFP, % of control = 101; viability (ATP), % of control = 114

3 entries from above, sorted by “viability (ATP), % of control”, ascending.
Tex16 [SID363546118]: GFP, % of control = 48; viability (ATP), % of control = 35.9
Tex16 [SID363549631]: GFP, % of control = 65.9; viability (ATP), % of control = 75.3
Nkd2 [SID363584562]: GFP, % of control = 107; viability (ATP), % of control = 86.2
